The source of these data is patent publication US10804000B2, “High efficiency continuous-flow production of radioisotopes” (priority 2016, dated 2020).

Data set [1] in a line: Irradiation of ammonium molybdate phosphate powder, 99Mo activity in washes, target and capture matrix. The note with it: sample 2: irradiated in contact with water capture matrix. From the text:
Wash 1, Wash 2, and the irradiated molybdenum target were all analyzed for ^99Mo activity using gamma spectroscopy at the prominent ^99Mo peak of 141 KeV.
Post irradiation the capture matrix was separated from the irradiation target and washed an additional time to determine post irradiation solubility (wash 1).

Data set [2] can be described thus: Continuous-flow Szilard-Chalmers irradiation (flow loop), enrichment factor. The note with it: for Maximum Enrichment Factor: continuous flow, solid powder target.

Consider ammonium molybdate phosphate [Sample 2], for which, in data set [1], the “% Activity in capture matrix” value amounted to 6.5% and the “% Activity in target” value is 92.2%. Regarding “Samarium 8-hydroxyquinolinate [Compound 4]”, the “increase of the samarium-153 specific activity compared to just irradiating the target under the same conditions” value in data set [2] (at enrichment factor 11.19) was 91.6%. The “Maximum Enrichment Factor” value amounted to 1.37 in data set [2] (10^−4M HNO3 capture matrix) and 11.19 in data set [2] (water capture matrix). For `CC(=O)C=C(C)[O-].CC(=O)C=C(C)[O-].CC(=O)C=C(C)[O-].[Sm+3]` [Compound 1, Samarium acetylacetonate], the “Maximum Enrichment Factor” value in data set [2] (water capture matrix) amounted to 3.56. “Holmium 8-hydroxyquinolinate [Compound 5]”: the “Maximum Enrichment Factor” value was found to be 4.54 in data set [2] (10^−4M HNO3 capture matrix) and 11.26 in data set [2] (water capture matrix). On to `CC(=O)C=C(C)[O-].CC(=O)C=C(C)[O-].CC(=O)C=C(C)[O-].[Ho+3]` [Holmium acetylacetonate], for which the “Maximum Enrichment Factor” value in data set [2] (water capture matrix) worked out at 14.83.
